These are yes or no findings as the source states them, for the method shown. A result given as binding can be weak or reduced; the word gives no strength.
Biological target: PDGFRB ECD
Assay: competition ELISA on PDGFRB ECD: unconjugated competitor titrated against SP26P-IRDye800, fluorescence at 800 nm

binding: binds
B1: SP26P (VHH)
VHH: EVQLVESGGGLVQAGGSLRLSCAASGRSFSSSVMGWFRQTPGKEREFVAATRWTAASTHYADSVKGRFTISRDHAENAVFLQMNSLKPEDTAVYYCAAGNYLDTAQYRYNYWGQGTQVTVSS

From US20220143204A1
